From patent US20250326855A1 (GO THERAPEUTICS, published 2025)
These are yes or no findings as the source states them, for the method shown. Where no end group is shown, it is not given here. GalNAc = O-linked GalNAc (Tn antigen, GalNAc-alpha1-O-Ser/Thr)

By UniProt entry, the sequences of proteins in these tests, tags left out. Residues count along the entry.
UniProt P15941, residues 138-197: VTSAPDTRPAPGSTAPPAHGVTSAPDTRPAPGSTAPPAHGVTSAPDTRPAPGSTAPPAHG

Assays:
Tn-glycosylated MUC1 [1] = target: Tn-glycosylated MUC1 (UniProt P15941); test: ELISA, antigen coated
Tn-glycosylated MUC1 [2] = target: Tn-glycosylated MUC1 (UniProt P15941); test: ELISA, antibody fixed at 1 ug/ml, coated antigen titrated, absorbance 450 nm

binding (Tn-glycosylated MUC1 [1])	binding (Tn-glycosylated MUC1 [2])	Binder
no binding (tested: 1 µg/mL antibody)	–	humanized 4C8 candidate 6 (4C8-HV1-46-A/LV7-46-A) (antibody, V domains shown, also called Molecule Number 6) VH: QVQLVQSGAEVKKPGASVKVSCKASGYTFTSYWMHWVRQAPGQGLEWIGNIYPRSGTTNYDGYFKSRATLTVDTSTSTAYMELSSLRSEDTAVYFCTRSGYDYPFVYWGQGTLVTVSS VL: QAVVTQEPSLTVSPGGTVTLTCRTSTGAVSIRNYANWVQEKPGQAFRGLIGGTNNRAPWTPARFSGSLLGDKAALTLSGAQPEDEAEYFCALLYSNYWVFGGGTKLTVL
no binding (tested: 1 µg/mL antibody)	–	humanized 4C8 candidate 7 (4C8-HV1-69-A/LV7-46-A) (antibody, V domains shown, also called Molecule Number 7) VH: QVQLVQSGAEVKKPGSSVKVSCKASGYTFTSYWMHWVRQAPGQGLEWIGNIYPRSGTTNYDGYFKSRATLTVDTSTSTAYMELSSLRSEDTAVYFCTRSGYDYPFVYWGQGTLVTVSS VL: QAVVTQEPSLTVSPGGTVTLTCRTSTGAVSIRNYANWVQEKPGQAFRGLIGGTNNRAPWTPARFSGSLLGDKAALTLSGAQPEDEAEYFCALLYSNYWVFGGGTKLTVL
no binding (tested: 1 µg/mL 4C8 mAb)	no binding (tested: 1000 ug/ml)	4C8 monoclonal antibody (antibody, V domains shown, Murine hybridoma antibody; also called 4C8 mAb; mAb 4C8) VH: QVQLQQPGSELVRPGASVKLSCKASGYTFTSYWMHWVKQRPGQGLEWIGNIYPRSGTTNYDGYFKSKATLTVDTSSSTAYMQLSSLTSEDSAVYFCTRSGYDYPFVYWGQGTLVTVSA VL: QAVVTQESALTTSPGETVTLTCRTSTGAVSIRNYANWVQEKPDHLFTGLIGGTNNRAPGVPARFSGSLIGDKAALTITGAQPEDEAIYFCALLYSNYWVFGGGTKLTVL
